Laboratory results reported in patent US20130102631A1, “NOVEL MICROBIOCIDAL DIOXIME ETHER DERIVATIVES” (SYNGENTA CROP PROTECTION LLC, priority 2010, published 2013).
Some results were stated once for a whole list of compounds, not compound by compound.

The molecules below were run on Phytophthora infestans. Conditions: tomato leaf disks, 200 ppm, inoculated 1 day after application, assessed 5-7 days after application.
Type: in vivo

Structure (SMILES)	control of Phytophthora infestans
Cc1cc(C)nc(C(=NOCCCO/N=C2\CCCc3ccc(C)nc32)c2cc(C)cc(C)n2)c1 [Compound 2.557]	at least 80%
C/C(=N\OCC(C)(C)CO/N=C1\CCCc2ccc(C)nc21)c1cccc(C)n1 [E/E-2.002]	at least 80%
C/C(=N\OCC(C)(C)CO/N=C1\CCCc2ccc(C)nc21)c1cc(C)cc(C)n1 [E/E-2.168]	at least 80%

The molecules below were run on Magnaporthe grisea. Conditions: rice leaf segments cv. Ballila, inoculated 2 days after application, assessed 5-7 days after application; application rate not given.
Type: in vivo

Structure (SMILES)	control of Magnaporthe grisea
C/C(=N\OCC(C)(C)CO/N=C1\CCCc2ccc(C)nc21)c1ccc2c(n1)CCCC2 [Compound 2.513]	at least 80%
C/C(=N\OCC(C)(C)CO/N=C1\CCCc2ccc(C#CCO)nc21)c1cc(C)cc(C)n1 [Compound 2.558]	at least 80%
C/C(=N\OCC(C)(C)CO/N=C1\CCCc2c1nc1ccccc1c2C)c1cc(C)cc(C)n1 [Compound 2.561]	at least 80%
C/C(=N\OCC1(CO/N=C2\CCCc3c2nc2ccccc2c3C)CC1)c1cc(C)cc(C)n1 [Compound 5.561]	at least 80%
C/C(=N\OCC(C)(C)CO/N=C1\CCCc2c(C)cc(CF)nc21)c1cc(C)cc(C)n1 [E/E-2.208]	at least 80%
